# PubChem BioAssay AID342 (DTP/NCI, 2004)
# The list is a part of this screen's results and no random one: it gathers tests that were run many times, whatever their T/C, doses with no T/C, and many T/C values between a quarter and a half above the control. Other doses and runs of a compound stand elsewhere. T/C gives the treated animals as a percentage of the vehicle group. Schedule codes are those of the source, read here as Q, the interval in days (D) or hours (H), X, the number of doses. Some doses were run more than once; the values are given in rising order. Some entries give survivors of the animals treated and no T/C: the source holds a T/C of zero for them, seemingly a mark for toxic or unscored doses. Counts of survivors are from the toxicity check (mostly the fifth day) where no day follows; animals may have died later. Some schedules carry Z or #; the key to these is not given.
# Tested on: Swiss mice, Sarcoma 180 sc, mean tumor weight T/C
# Experiment: NCI In Vivo Anticancer Drug Screen. Data for tumor model Sarcoma 180 (subcutaneous) in Swiss mice
# Details: T/C endpoint: mean tumor weight, higher T/C = larger tumour; for T/C: evaluated on day 8
# How it was run: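 Readout is the ratio of treated-group measurement to vehicle-control measurement (T/C), based on survival or tumor size in mice carrying transplanted tumors.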
# [1] = dose: 500.0 mg/kg/injection, schedule: Q01DX007 (ip), vehicle: carboxymethylcellulose (CMC)
# [2] = dose: 300.0 mg/kg/injection, schedule: Q01DX007 (ip), vehicle: carboxymethylcellulose (CMC)
compound,measurement,setting,value
CN1CC2CC(C1)c1cccc(=O)n1C2 (stereo not given),survivor count,"dose: 33.0 mg/kg/injection, schedule: Q01DX007 (ip), vehicle: saline",0 of 6
same,survivor count,"dose: 50.0 mg/kg/injection, schedule: Q01DX007 (ip), vehicle: saline",0 of 6
same,survivor count,"dose: 75.0 mg/kg/injection, schedule: Q01DX007 (ip), vehicle: saline",0 of 6
same,survivor count,"dose: 110.0 mg/kg/injection, schedule: Q01DX007 (ip), vehicle: saline",0 of 6
O=C1C=CC(=O)N1c1ccc2c(c1)oc(=O)c1ccccc12,survivor count,"dose: 750.0 mg/kg/injection, schedule: Q01DX007 (ip), vehicle: other",4 of 7
same,survivor count,"dose: 1000.0 mg/kg/injection, schedule: Q01DX007 (sc), vehicle: steroid suspending solution",3 of 6
same,survivor count,"dose: 1250.0 mg/kg/injection, schedule: Q01DX007 (sc), vehicle: steroid suspending solution",2 of 6
CC(C)C(=O)OCC1OC(n2cnc3c(=S)nc(N)[nH]c32)C(OC(=O)C(C)C)C1OC(=O)C(C)C (stereo not given),survivor count,"dose: 47.0 mg/kg/injection, schedule: Q01DX007 (ip), vehicle: methylcellulose (MC)",3 of 6
CN(C)c1ccc(/C=C/c2ccnc3ccccc23)cc1,T/C,"dose: 7.75 mg/kg/injection, schedule: Q01DX007 (ip), vehicle: water",127 % of control
same,survivor count,"dose: 31.0 mg/kg/injection, schedule: Q01DX007 (ip), vehicle: water",0 of 6
same,survivor count,"dose: 62.0 mg/kg/injection, schedule: Q01DX007 (ip), vehicle: water",0 of 6
same,survivor count,"dose: 125.0 mg/kg/injection, schedule: Q01DX007 (ip), vehicle: carboxymethylcellulose (CMC)",2 of 6
same,survivor count,"dose: 250.0 mg/kg/injection, schedule: Q01DX007 (ip), vehicle: carboxymethylcellulose (CMC)",0 of 6
same,survivor count,[1],0 of 6
S=P(N1CC1)(N1CC1)N1CC1,survivor count,"dose: 1750.0 mg/kg/injection, schedule: Q#A X014 (ip), vehicle: carboxymethylcellulose (CMC)",5 of 10
CCOC(=O)Sc1ncnc2nc[nH]c12,T/C,"dose: 0.8 mg/kg/injection, schedule: Q01DX007 (ip), vehicle: carboxymethylcellulose (CMC)",136 % of control
CC(CN)CCC(C)(O)C(N)=O (stereo not given),survivor count,"dose: 281.25 mg/kg/injection, schedule: Q#A X014 (ip), vehicle: methylcellulose (MC)",2 of 6
C=CCSc1ncnc2c1ncn2C1OC(CO)C(O)C1O (stereo not given),survivor count,"dose: 200.0 mg/kg/injection, schedule: Q01DX007 (ip), vehicle: saline",3 of 6
same,survivor count,"dose: 300.0 mg/kg/injection, schedule: Q01DX007 (ip), vehicle: saline",3 of 6
same,survivor count,"dose: 400.0 mg/kg/injection, schedule: Q01DX007 (ip), vehicle: saline",0 of 6
COC(=O)C1C(O)CCC2CN3CCc4c([nH]c5ccccc45)C3CC21 (stereo not given),survivor count,[2],2 of 6
same,survivor count,[1],0 of 6
CC(=O)OCC(=O)[C@@]1(O)CC[C@H]2[C@@H]3C[C@H](C)C4=CC(=O)CC[C@]4(C)[C@H]3[C@@H](O)C[C@@]21C,survivor count,"dose: 100.0 mg/kg/injection, schedule: Q#A X014 (sc), vehicle: steroid suspending solution",3 of 6
S=c1nc[nH]c2nc[nH]c12,T/C,"dose: 29.0 mg/kg/injection, schedule: Q01DX007 (ip), vehicle: carboxymethylcellulose (CMC)","42, 45, 64, 65 % of control"
same,survivor count,"dose: 120.0 mg/kg/injection, schedule: Q01DX007 (ip), vehicle: other",1 of 6
same,survivor count,"dose: 150.0 mg/kg/injection, schedule: Q01DX007 (ip), vehicle: carboxymethylcellulose (CMC)",0 of 6
same,survivor count,"dose: 240.0 mg/kg/injection, schedule: Q01DX007 (ip), vehicle: other",0 of 6
NC(Cc1cccs1)C(=O)O (stereo not given),T/C,[1],132 % of control
O=C(O)CCCc1ccc(N(CCCl)CCCl)cc1,survivor count,"dose: 15.4 mg/kg/injection, schedule: Q01DX007 (ip), vehicle: carboxymethylcellulose (CMC)",4 of 10
same,survivor count,"dose: 24.1 mg/kg/injection, schedule: Q01DX007 (ip), vehicle: carboxymethylcellulose (CMC)",3 of 10
Nc1ncnc2c1ccn2C1OC(CO)C(O)C1O (stereo not given),survivor count,"dose: 1.25 mg/kg/injection, schedule: Q#A X014 (ip), vehicle: carboxymethylcellulose (CMC)",3 of 6
CCCCOP(=S)(N1CC1)N1CC1,survivor count,"dose: 6.6 mg/kg/injection, schedule: Q01DX007 (ip), vehicle: saline",0 of 6
same,survivor count,"dose: 7.5 mg/kg/injection, schedule: Q#A X014 (ip), vehicle: saline",1 of 6
same,survivor count,"dose: 10.0 mg/kg/injection, schedule: Q01DX007 (ip), vehicle: saline",0 of 6
same,survivor count,"dose: 11.25 mg/kg/injection, schedule: Q#A X014 (ip), vehicle: saline",1 of 6
same,survivor count,"dose: 15.0 mg/kg/injection, schedule: Q01DX007 (ip), vehicle: saline",0 of 6
same,survivor count,"dose: 22.5 mg/kg/injection, schedule: Q01DX007 (ip), vehicle: saline",0 of 6
CC1C/C=C2\CSC(NC(=O)/C3=C\N(C/C=C/C=C/C(O)CC(O)CC(=O)N3)C2=O)C(=O)O1 (stereo not given),T/C,"dose: 75.0 mg/kg/injection, schedule: Q01DX007 (ip), vehicle: carboxymethylcellulose (CMC)",140 % of control
O=C(CCN1CC1)OCCOC(=O)CCN1CC1,survivor count,"dose: 13.5 mg/kg/injection, schedule: Q#A X014 (ip), vehicle: methylcellulose (MC)",3 of 6
CC(/C=N\N=C(N)N)=N/N=C(N)N,T/C,"dose: 5.26 mg/kg/injection, schedule: Q01DX007 (ip), vehicle: carboxymethylcellulose (CMC)",127 % of control
same,T/C,"dose: 10.52 mg/kg/injection, schedule: Q01DX007 (ip), vehicle: carboxymethylcellulose (CMC)",135 % of control
same,T/C,"dose: 21.05 mg/kg/injection, schedule: Q01DX007 (ip), vehicle: carboxymethylcellulose (CMC)",125 % of control
O=C(O)CCc1c[nH]c2ccc(N(CCCl)CCCl)cc12,survivor count,"dose: 8.0 mg/kg/injection, schedule: Q01DX007 (ip), vehicle: carboxymethylcellulose (CMC)",3 of 6
same,survivor count,"dose: 15.0 mg/kg/injection, schedule: Q01DX007 (ip), vehicle: carboxymethylcellulose (CMC)",0 of 6
COc1cccc2c1C(=O)c1c(O)c3c(c(O)c1C2=O)C[C@@](O)(C(C)=O)C[C@@H]3OC1CC(N)C(O)C(C)O1 (stereo not given in full),T/C,"dose: 1.0 mg/kg/injection, schedule: Q01DX007 (sc), vehicle: steroid suspending solution",134 % of control
same,survivor count,"dose: 10.0 mg/kg/injection, schedule: Q01DX007 (sc), vehicle: steroid suspending solution",2 of 6 and 3 of 6
Cc1nc(C(N)=O)nc2ccccc12,survivor count,"dose: 250.0 mg/kg/injection, schedule: Q#A X014 (ip), vehicle: methylcellulose (MC)",3 of 6
same,survivor count,[2],1 of 6 and 2 of 7
same,survivor count,"dose: 450.0 mg/kg/injection, schedule: Q01DX007 (ip), vehicle: carboxymethylcellulose (CMC)",0 of 6
same,survivor count,"dose: 675.0 mg/kg/injection, schedule: Q01DX007 (ip), vehicle: carboxymethylcellulose (CMC)",0 of 6
NC1(C(=O)OCc2ccccc2)CCCC1,survivor count,"dose: 222.0 mg/kg/injection, schedule: Q01DX007 (ip), vehicle: carboxymethylcellulose (CMC)",3 of 6
[N-]=[N+]=CC(=O)CCC(N)C(=O)O (stereo not given),survivor count,"dose: 50.0 mg/kg/injection, schedule: Q#A X014 (ip), vehicle: saline",1 of 7 and 3 of 6
c1ccc2nc3c(nc2c1)[nH]c1ccccc13,survivor count,[1],3 of 6
COc1cc(C[C@H]2c3cc(OC)c(OC)cc3CCN2C)c(Oc2cc3c(cc2OC)-c2c(OC)c(OC)cc4c2[C@H](C3)N(C)CC4)cc1OC,survivor count,"dose: 250.0 mg/kg/injection, schedule: Q01DX007 (ip), vehicle: saline",3 of 6
same,survivor count,"dose: 500.0 mg/kg/injection, schedule: Q01DX007 (ip), vehicle: saline",0 of 6
